Measurements taken from US20140037650A1 (UNIVERSITY OF CHICAGO, published 2014).
Results are given in words; binding and its absence hold for the method and conditions named. Some results given as binding are weak or reduced against the parent protein; the word gives no strength.

The chains behind the UniProt entries cited, without tags or fusion partners. Where a name states a change or a piece, a line headed by the entry shows the natural chain unless it says otherwise.
UniProt P69905: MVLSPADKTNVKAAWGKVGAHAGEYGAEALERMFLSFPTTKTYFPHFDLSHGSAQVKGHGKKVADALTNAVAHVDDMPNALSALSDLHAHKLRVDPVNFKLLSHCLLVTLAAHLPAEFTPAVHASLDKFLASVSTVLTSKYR
UniProt A5IS15: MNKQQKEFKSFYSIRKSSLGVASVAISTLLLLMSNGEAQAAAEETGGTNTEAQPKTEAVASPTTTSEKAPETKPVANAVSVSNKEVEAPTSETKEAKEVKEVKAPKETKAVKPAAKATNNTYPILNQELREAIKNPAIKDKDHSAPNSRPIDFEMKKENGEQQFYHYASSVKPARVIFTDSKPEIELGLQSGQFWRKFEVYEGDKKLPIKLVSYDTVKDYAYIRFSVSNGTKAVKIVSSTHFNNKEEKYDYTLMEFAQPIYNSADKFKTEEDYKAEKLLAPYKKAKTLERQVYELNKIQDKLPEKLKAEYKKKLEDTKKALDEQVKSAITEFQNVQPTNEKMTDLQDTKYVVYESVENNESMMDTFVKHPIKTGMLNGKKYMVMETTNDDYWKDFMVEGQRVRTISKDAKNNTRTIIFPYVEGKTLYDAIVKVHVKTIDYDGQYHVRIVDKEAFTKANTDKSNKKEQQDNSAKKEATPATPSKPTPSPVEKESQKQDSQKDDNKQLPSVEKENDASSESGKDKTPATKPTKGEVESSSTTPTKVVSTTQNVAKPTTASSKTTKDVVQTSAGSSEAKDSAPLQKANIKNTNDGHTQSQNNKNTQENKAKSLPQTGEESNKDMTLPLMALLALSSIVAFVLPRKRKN

Target: hemoglobin (human) (UniProt P69905)
Test: SPR, His6-tagged protein on NTA chip

With “Poly-histidine tagged IsdB (from UniProt A5IS15 41-613)” the binding was “binds”.
